Earlier results in patent publication US11135445B2, “Antimicrobial photodynamic inactivation procedure and system” (The General Hospital Corporation, priority 2014, dated 2021).
At least one structure is not confirmed: it was looked up by name or label, or the drawing left a doubt.

Details: cited from earlier work

## O=C1OC2(c3cc(I)c(O)c(I)c3Oc3c2cc(I)c(O)c3I)c2c(Cl)c(Cl)c(Cl)c(Cl)c21 [RB, Rose bengal]
  singlet oxygen quantum yield: about 0.86
